These are yes or no findings as the source states them, for the method shown. For some assays here: Binding seen in cells or lysates may run through a third protein. Some entries that bind do so weakly or less than the wild type. Values belong to the substance of their own block, whether it stands above or below them.
Experiments:
[1] = target: human aryl hydrocarbon receptor (AHR), full length (human) (UniProt P35869); assay: co-IP of 35S-labelled in vitro translated protein with AHR-specific antiserum
LexAMOP1 (human) [2] = assay: yeast interaction trap (mating), X-Gal overlay
LexAMOP2 (human) [3] = assay: yeast interaction trap (mating), X-Gal overlay
LexAMOP1 (human) [4] = assay: yeast interaction trap (discussion)
LexAMOP2 (human) [5] = assay: yeast interaction trap (discussion)
[6] = target: AH receptor nuclear translocator (ARNT), full length (human) (UniProt P27540); assay: co-IP (discussion)
[7] = target: AH receptor nuclear translocator (ARNT), full length (human) (UniProt P27540); assay: co-IP of 35S-labelled in vitro translated protein with ARNT-specific antiserum
MOP3 (human) = MOP3 (human) (UniProt O00327); assay: assay not described

Chains of the proteins cited; added tags and fusions are not shown. Lines headed by an entry give the natural chain unless they say otherwise; changes in a name come on top.
UniProt P35869: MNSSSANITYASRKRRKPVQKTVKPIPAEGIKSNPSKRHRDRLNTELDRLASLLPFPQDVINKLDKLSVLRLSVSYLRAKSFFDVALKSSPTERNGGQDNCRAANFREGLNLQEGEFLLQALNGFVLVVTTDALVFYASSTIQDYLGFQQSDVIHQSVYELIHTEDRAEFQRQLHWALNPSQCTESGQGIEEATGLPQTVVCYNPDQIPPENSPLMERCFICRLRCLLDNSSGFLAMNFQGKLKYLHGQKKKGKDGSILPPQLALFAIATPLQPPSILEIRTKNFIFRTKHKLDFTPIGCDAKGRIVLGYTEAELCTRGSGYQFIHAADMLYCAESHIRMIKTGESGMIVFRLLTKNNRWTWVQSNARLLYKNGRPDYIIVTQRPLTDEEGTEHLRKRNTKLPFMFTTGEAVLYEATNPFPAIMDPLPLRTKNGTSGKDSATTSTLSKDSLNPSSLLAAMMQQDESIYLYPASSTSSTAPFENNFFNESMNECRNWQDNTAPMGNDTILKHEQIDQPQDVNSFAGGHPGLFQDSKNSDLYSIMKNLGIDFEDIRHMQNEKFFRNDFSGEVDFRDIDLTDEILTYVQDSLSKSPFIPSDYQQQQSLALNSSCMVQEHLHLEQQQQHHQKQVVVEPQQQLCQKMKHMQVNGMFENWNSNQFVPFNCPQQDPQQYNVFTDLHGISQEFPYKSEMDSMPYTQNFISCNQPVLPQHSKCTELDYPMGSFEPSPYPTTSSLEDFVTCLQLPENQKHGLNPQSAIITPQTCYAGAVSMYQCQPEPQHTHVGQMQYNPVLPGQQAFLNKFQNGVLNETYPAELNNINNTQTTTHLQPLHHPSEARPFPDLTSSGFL
UniProt P27540: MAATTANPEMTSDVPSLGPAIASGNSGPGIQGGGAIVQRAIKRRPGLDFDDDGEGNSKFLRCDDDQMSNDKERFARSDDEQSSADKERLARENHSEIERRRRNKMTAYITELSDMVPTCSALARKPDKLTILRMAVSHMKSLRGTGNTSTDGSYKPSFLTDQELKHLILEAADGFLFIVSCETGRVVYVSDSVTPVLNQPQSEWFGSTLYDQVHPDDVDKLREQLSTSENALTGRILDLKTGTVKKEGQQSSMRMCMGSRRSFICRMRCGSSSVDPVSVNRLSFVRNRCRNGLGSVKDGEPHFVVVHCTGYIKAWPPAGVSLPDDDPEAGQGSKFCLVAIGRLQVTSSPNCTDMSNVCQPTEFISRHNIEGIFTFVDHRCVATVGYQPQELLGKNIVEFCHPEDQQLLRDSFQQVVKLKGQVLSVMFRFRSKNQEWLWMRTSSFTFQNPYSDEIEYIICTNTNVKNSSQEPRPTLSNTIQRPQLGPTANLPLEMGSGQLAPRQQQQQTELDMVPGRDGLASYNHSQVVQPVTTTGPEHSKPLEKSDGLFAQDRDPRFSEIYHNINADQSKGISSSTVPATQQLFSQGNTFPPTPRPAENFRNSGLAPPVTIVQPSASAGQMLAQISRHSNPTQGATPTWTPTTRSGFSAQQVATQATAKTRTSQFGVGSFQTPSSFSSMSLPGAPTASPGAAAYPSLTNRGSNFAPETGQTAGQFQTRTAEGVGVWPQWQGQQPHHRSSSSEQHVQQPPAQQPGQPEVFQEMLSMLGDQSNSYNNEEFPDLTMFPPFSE
UniProt O00327: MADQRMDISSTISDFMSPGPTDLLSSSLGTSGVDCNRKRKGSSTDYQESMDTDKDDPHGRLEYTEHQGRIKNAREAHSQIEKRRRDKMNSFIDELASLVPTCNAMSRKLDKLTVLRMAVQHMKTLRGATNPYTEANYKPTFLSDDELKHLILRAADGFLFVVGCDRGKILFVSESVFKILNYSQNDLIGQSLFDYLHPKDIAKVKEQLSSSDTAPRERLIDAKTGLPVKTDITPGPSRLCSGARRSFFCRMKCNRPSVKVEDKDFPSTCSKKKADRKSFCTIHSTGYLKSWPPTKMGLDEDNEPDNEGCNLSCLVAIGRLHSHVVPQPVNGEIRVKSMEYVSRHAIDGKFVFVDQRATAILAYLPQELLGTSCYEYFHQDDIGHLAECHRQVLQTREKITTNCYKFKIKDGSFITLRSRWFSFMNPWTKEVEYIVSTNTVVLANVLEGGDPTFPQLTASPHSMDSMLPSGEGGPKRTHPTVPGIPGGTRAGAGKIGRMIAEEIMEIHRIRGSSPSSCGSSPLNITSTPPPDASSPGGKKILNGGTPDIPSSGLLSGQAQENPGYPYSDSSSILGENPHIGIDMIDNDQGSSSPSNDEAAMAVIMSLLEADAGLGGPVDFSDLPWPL
UniProt Q0VBL6: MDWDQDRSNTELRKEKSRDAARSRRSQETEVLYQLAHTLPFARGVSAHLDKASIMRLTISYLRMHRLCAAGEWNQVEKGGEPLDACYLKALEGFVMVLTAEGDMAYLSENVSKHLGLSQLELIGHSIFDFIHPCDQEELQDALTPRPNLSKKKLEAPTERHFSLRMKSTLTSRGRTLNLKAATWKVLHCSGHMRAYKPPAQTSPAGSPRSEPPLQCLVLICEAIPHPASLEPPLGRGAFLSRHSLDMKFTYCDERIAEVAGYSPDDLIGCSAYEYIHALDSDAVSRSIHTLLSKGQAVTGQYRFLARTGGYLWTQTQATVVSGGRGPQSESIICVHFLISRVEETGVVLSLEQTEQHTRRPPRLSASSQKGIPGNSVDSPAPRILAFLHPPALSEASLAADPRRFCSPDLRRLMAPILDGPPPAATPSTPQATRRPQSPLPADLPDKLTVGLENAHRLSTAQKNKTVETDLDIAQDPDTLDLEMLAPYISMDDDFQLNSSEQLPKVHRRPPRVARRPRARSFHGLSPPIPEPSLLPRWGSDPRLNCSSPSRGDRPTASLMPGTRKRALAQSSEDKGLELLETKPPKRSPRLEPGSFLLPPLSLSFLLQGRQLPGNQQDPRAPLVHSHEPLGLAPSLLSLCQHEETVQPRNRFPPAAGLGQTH

binding [1]: binds
binding (LexAMOP1 (human) [2]): binds
binding (LexAMOP2 (human) [3]): binds
binding (LexAMOP1 (human) [4]): binds
binding (LexAMOP2 (human) [5]): binds
Substance: AH receptor nuclear translocator (ARNT), full length (from UniProt P27540 1-789)

binding [6]: binds
binding [7]: binds
Substance: human aryl hydrocarbon receptor (AHR), full length (from UniProt P35869 1-848)

binding (MOP3 (human)): binds
Substance: mouse MOP7 (from UniProt Q0VBL6 1-662)
